# Values of other authors as cited in patent US12005050B2, “Methods for preventing or treating H. pylori infection” (TENNOR THERAPEUTICS (SUZHOU) LIMITED, priority 2022, dated 2024).
# Some of these results come from one statement about several compounds together. At least one structure is not confirmed: it was looked up by name or label, or the drawing left a doubt.
# System: Helicobacter pylori
# Settings: In China; cited from earlier work
row,Structure (SMILES),Resistance rate of Helicobacter pylori
1,CC[C@H]1OC(=O)[C@H](C)[C@@H](O[C@H]2C[C@@](C)(OC)[C@@H](O)[C@H](C)O2)[C@H](C)[C@@H](O[C@@H]2O[C@H](C)C[C@H](N(C)C)[C@H]2O)[C@](C)(OC)C[C@@H](C)C(=O)[C@H](C)[C@@H](O)[C@]1(C)O [clarithromycin],20-50%
2,C[C@H]1COc2c(N3CCN(C)CC3)c(F)cc3c(=O)c(C(=O)O)cn1c23 [levofloxacin],20-50%
